From patent publication US7135320
These are yes or no findings as the source states them, for the method shown. Binding seen in cells or lysates may run through a third protein. Some results given as binding are weak or reduced against the parent protein; the word gives no strength.

Sequences of proteins named here, by UniProt entry; tags and fusion partners are left off.
UniProt Q60631: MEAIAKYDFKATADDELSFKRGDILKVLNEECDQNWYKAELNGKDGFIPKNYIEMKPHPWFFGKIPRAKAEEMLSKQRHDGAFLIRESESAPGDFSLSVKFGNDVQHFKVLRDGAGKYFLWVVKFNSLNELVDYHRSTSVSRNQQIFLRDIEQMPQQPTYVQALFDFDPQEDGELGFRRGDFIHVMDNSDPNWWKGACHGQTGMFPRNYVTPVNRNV

Assays:
Sos1 [1] = molecular target: Sos1 (UniProt Q62245); assay: co-immunoprecipitation and far-Western blotting
Sos1 [2] = molecular target: Sos1 (UniProt Q62245); assay: co-immunoprecipitation from NIH-3T3 lysates, immunoblotting

binding (Sos1 [1]): binds | binding (Sos1 [2]): binds
Substance: Grb2 (from UniProt Q60631 1-217)
